The list shows a part of the results.
system: T1, CTL2-GFP (C. trachomatis L2/434/Bu, GFP-expressing); design: species or system HeLa; Intracellular C. trachomatis growth in HeLa cells, bulk GFP fluorescence relative to DMSO; conditions: bulk GFP, single well; 28.5 h, 10 µM; inhibitor
T1 construct: L2/434/Bu, GFP-expressing

Compound | % of control remaining
COCCN1CC2=C(C1=O)C(c1ccc(F)cc1)NC(=O)N2 (stereo not shown) [CBK249447] | 136.684%
O=S(=O)(Nc1cccc2nsnc12)c1cccs1 [CBK017018] | 157.045%
CS(=O)(=O)N1CCC(C(=O)NCCN2CCOCC2)CC1 [CBK270151] | 114.792%
CCOc1ccc(N2C(=O)CC(N3CCN(c4ccccn4)CC3)C2=O)cc1 (stereo not shown) [CBK263285] | 103.21%
CC(C)c1cc(C(=O)NCC2CCCN(C(C)C)C2)n(C)n1 (stereo not shown) [CBK282566] | 101.776%
N[C@@H]1CCCN(C(=O)c2ccccc2)[C@H]1c1ccccc1F [CBK281405] | 75.5269%
COc1nccnc1OC1CCN(CCCO)CC1 [CBK084254] | 154.595%
O=S(=O)(Nc1cc(Cl)nc(Cl)c1)c1ccc(-c2cc(C(F)(F)F)on2)s1 [CBK062215] | 134.108%
O=C(CN1C(=O)CCC1=O)Nc1nnc(-c2ccc3c(c2)CCCC3)o1 [CBK287427] | 162.15%
CN(C)c1ccc(/C=N/NC2=NC(=O)CS2)cc1 [CBK019273] | 116.006%
Cc1nc(-c2ccc(NCC(O)c3ccco3)nc2)[nH]c(=O)c1C (stereo not shown) [CBK305254] | 91.9029%
Cc1cc(C(=O)N2CCC(n3c(=O)[nH]c4ccccc43)CC2)no1 [CBK149714] | 111.171%
O=C(O)c1ccc(OCCN2C3=NCCN3c3ccccc32)cc1 [CBK286629] | 71.93%
O=S(=O)(Nc1nccnc1Cl)c1ccccc1Cl [CBK149698] | 107.508%
COc1ccc(OC)c(C(=O)N2CCNC(=O)C2Cc2ccc(-c3cccs3)cc2)c1 (stereo not shown) [CBK285803] | 67.9137%
Cc1ccccc1-n1ncc2c1ncn1nc(-c3ccccc3)nc21 [CBK287797] | 91.581%
N#C/C(=C\c1ccc(-c2ccc3c(c2)C(=O)NC3=O)o1)c1nc2ccccc2[nH]1 [CBK262965] | 123.522%
CC(C)(C)c1ccc(CN2CCN(C(=O)c3ccc(-c4ccc(S(C)(=O)=O)cc4)cn3)CC2)cc1 [CBK160487] | 82.0209%
O=C(NC1CC1)[C@H]1CN2CCC1C[C@@H]2Cn1cc(C2(O)CCCC2)nn1 (stereo partly shown) [CBK289092] | 131.992%
Cc1cccc(CN2CCC(NC(=O)Cn3cc(Br)ccc3=O)CC2)c1 [CBK305669] | 139.95%
CCOc1ncccc1C(=O)Nc1cnc2c(cnn2C(C)C)c1 [CBK306210] | 116.008%
CCNC(=O)C1(Cc2ccccc2-c2ccccc2)CCN(C(=O)c2csc(C)c2)CC1 [CBK285698] | 139.436%
Cc1nn(C)c2ncc(S(=O)(=O)Nc3cc(C(N)=O)ccc3Cl)cc12 [CBK306104] | 151.642%
OC1CC(c2cc(NCCc3nc4ccccc4o3)ncn2)C1 (stereo not shown) [CBK306573] | 75.2698%
C[C@@H](NC(=O)CCN1C(=O)[C@@H]2Cc3ccccc3CN2C1=O)C(=O)O [CBK286709] | 110.781%

Compound | % of control remaining
CC(=O)Nc1cccc(-c2nccnc2NS(=O)(=O)c2cccs2)c1 [CBK050760] | 105.455%
CCOc1ccccc1C1C=C(C(=O)O)Nc2c(C(=O)Nc3ccccc3)cnn21 (stereo not shown) [CBK287253] | 147.18%
Cn1c(CCC(=O)Nc2ccc3c(c2)CN(Cc2ccccc2)C3)nc2ccccc21 [CBK285990] | 104.973%
c1csc(-c2nccnc2NCCCN2CCOCC2)c1 [CBK036632] | 186.962%
CCC(=O)Nc1nc(-c2ccco2)c(-c2ccncc2)s1 [CBK284495] | 110.561%
COc1cc(/C=N/NC(=O)C(=O)Nc2ccc(C)c(C)c2)ccc1O [CBK262225] | 100%
COc1ccc(Sc2nccc(C(F)(F)F)n2)cc1OC [CBK093772] | 114.702%
c1coc(-c2nccnc2NCCCN2CCOCC2)c1 [CBK038086] | 145.236%
CCOc1ccc(CC(=O)NC[C@H]2CC[C@H](c3cc(C(N)=O)c4ccccc4n3)CC2)cc1 [CBK285899] | 118.861%
O=C(CN1CCC(NC(=O)c2cccs2)CC1)Nc1ccc(F)c(F)c1 [CBK305991] | 137.772%
CN(C)CC(Oc1ccccc1)C(=O)c1ccccc1 (stereo not shown) [CBK011935C] | 91.3116%
O=C(COc1ccccc1)NCC1(c2ccccc2)CCOCC1 [CBK067407] | 88.3741%
CCOc1cccc(-c2cncc(NCCO)n2)c1 [CBK066075] | 123.516%
CCCCC12CN3CCN(CC(C3)/C1=N\N=C1/C3CN4CCN(C3)CC1(CCCC)C4)C2 [CBK264981] | 111.623%
CCc1ccccc1-c1cccc(C(=O)NCC(O)CN(C)C)c1 (stereo not shown) [CBK306604] | 110.026%
CSCCC(=O)N1CCC2(CCN(Cc3ccccc3)C2)C1 (stereo not shown) [CBK136838] | 88.272%
COc1ccc(-c2cc(C(=O)NCCc3ccc(N)cc3)cnc2-c2ccc(Cl)cc2)cc1 [CBK037561] | 191.846%
O=C(CN1CCCC1=O)NC(Cc1cccs1)c1nccs1 (stereo not shown) [CBK282177] | 109.238%
CS(=O)(=O)N(CC(=O)NC1CCCCC1)c1cccc2ccccc12 [CBK263770] | 114.27%
COc1ccc2[nH]c(=O)c(CN(CCCN3CCOCC3)C(=O)Nc3cccc(Cl)c3)cc2c1 [CBK135402] | 103.426%
COCCN1C(=O)C2(CC(=O)N(CC(=O)N(C)C)C2=O)c2cc(F)ccc21 (stereo not shown) [CBK075428] | 158.865%
Cc1ncoc1C(=O)N1CCC2(C/C=C/C[C@H]3COCC[C@H]3NC(=O)CNC2=O)CC1 [CBK292086] | 137.9%
COc1cc(CN2CCCC3(CCN(C(=O)Cc4c[nH]c5ccccc45)C3)C2)cc(OC)c1OC (stereo not shown) [CBK132027] | 109.475%
O=C1CNC(=O)C2(C/C=C/C[C@H]3COCC[C@H]3N1)CCN(Cc1cccc3[nH]ccc13)CC2 [CBK292073] | 134.928%

3 entries drawn at random from those above, as already listed:
Compound | % of control remaining
N[C@@H]1CCCN(C(=O)c2ccccc2)[C@H]1c1ccccc1F [CBK281405] | 75.5269%
CSCCC(=O)N1CCC2(CCN(Cc3ccccc3)C2)C1 (stereo not shown) [CBK136838] | 88.272%
CCOc1cccc(-c2cncc(NCCO)n2)c1 [CBK066075] | 123.516%
